Experimental data published in publication PMC10454621.
Results are given in words; binding and its absence hold for the method and conditions named. Some results given as binding are weak or reduced against the parent protein; the word gives no strength.

Chains of the proteins cited; added tags and fusions are not shown. Residues count along the entry.
UniProt P05067, residues 672-713: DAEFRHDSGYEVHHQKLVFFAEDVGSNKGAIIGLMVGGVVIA
UniProt P61769: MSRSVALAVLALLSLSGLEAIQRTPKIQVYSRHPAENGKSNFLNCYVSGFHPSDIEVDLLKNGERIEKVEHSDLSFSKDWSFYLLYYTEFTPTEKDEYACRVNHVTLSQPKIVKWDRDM

Experiments:
Test in all cases: far-UV CD spectroscopy; aggregated or fibrillar form of the mammalian protein (0.5 mg/mL; for lysozyme during fibrillogenesis and after its completion) mixed with vicilin amyloid fibrils (0.1 mg/mL), incubated for 2 h; interaction read from a change in the CD spectrum; both purified
[1] = target: 42-residue β-amyloid peptide (UniProt P05067)
lysozyme = lysozyme (UniProt P00698)
β-2-microglobulin = β-2-microglobulin (UniProt P61769)

binding [1]: binds
binding (lysozyme): binds
binding (β-2-microglobulin): binds
B1: 7S seed storage globulin vicilin of the garden pea Pisum sativum L. (protein, UniProt P13918 29-459)
chain: RSDPQNPFIFKSNKFQTLFENENGHIRLLQKFDQRSKIFENLQNYRLLEYKSKPHTIFLPQHTDADYILVVLSGKAILTVLKPDDRNSFNLERGDTIKLPAGTIAYLVNRDDNEELRVLDLAIPVNRPGQLQSFLLSGNQNQQNYLSGFSKNILEASFNTDYEEIEKVLLEEHEKETQHRRSLKDKRQQSQEENVIVKLSRGQIEELSKNAKSTSKKSVSSESEPFNLRSRGPIYSNEFGKFFEITPEKNPQLQDLDIFVNSVEIKEGSLLLPHYNSRAIVIVTVNEGKGDFELVGQRNENQQEQRKEDDEEEEQGEEEINKQVQNYKAKLSSGDVFVIPAGHPVAVKASSNLDLLGFGINAENNQRNFLAGDEDNVISQIQRPVKELAFPGSAQEVDRILENQKQSHFADAQPQQRERGSRETRDRLSSV
